At least one read-out could not be matched to a standard name with certainty.
Key:
[1] = Enzyme kinetics of purified wild type and mutant PAL, TAL activity (spectrophotometric); format: biochemical; conditions: tyrosine as substrate
Experimental: (§1) The PAL or TAL activity of the purified enzymes were measured using a spectrophotometer according to Abell et al., “Phenylalanine Ammonia-lyase from Yeast Rhodotorula glutinis,” Methods Enzymol. 142:242-248 (1987). The spectrophotometric assay for PAL determination was initiated by the addition of the enzyme to a solution containing 1.0 mM L-phenylalanine and 50 mM Tris-HCl (pH 8.5). The reaction was then followed by monitoring the absorbance of the product, cinnamic acid, at 290 nm using a molar extinction coefficient of 9000 cm^−1. The assay was run over a 5 min period using an amount of enzyme that produced absorbance changes in the range of 0.0075 to 0.018/min. […] The TAL activity was similarly measured using tyrosine in the reaction solution. The absorbance of the para-hydroxycinnamic acid produced was followed at 315 nm and the activity was determined using an extinction coefficient of 10,000 cm^−1 for PHCA. […]
(§2) A detailed enzyme kinetics analysis using the yeast wild type and the purified mutant PAL enzyme and tyrosine or phenylalanine as substrate, was carried out. The PAL and TAL activities were measured spectrophotometrically as described in the General Methods and the KM and Vmax were determined from its Lineweaver-Burke plot. The kcat was calculated from Vmax assuming the presence of four active sites in the active tetramer.

[2] = Enzyme kinetics of purified wild type and mutant PAL, PAL activity (spectrophotometric); format: biochemical; conditions: phenylalanine as substrate
Experimental: as §1, §2

B1: Wild Type PAL: wildtype R. glutinis (Rhodosporidium toruloides) PAL enzyme, SEQ ID NO:8 (protein)
chain: MAPSLDSISHSFANGVASAKQAVNGASTNLAVAGSHLPTTQVTQVDIVEKMLAAPTDSTLELDGYSLNLGDVVSAARKGRPVRVKDSDEIRSKIDKSVEFLRSQLSMSVYGVTTGFGGSADTRTEDAISLQKALLEHQLCGVLPSSFDSFRLGRGLENSLPLEVVRGAMTIRVNSLTRGHSAVRLVVLEALTNFLNHGITPIVPLRGTISASGDLSPLSYIAAAISGHPDSKVHVVHEGKEKILYAREAMALFNLEPVVLGPKEGLGLVNGTAVSASMATLALHDAHMLSLLSQSLTAMTVEAMVGHAGSFHPFLHDVTRPHPTQIEVAGNIRKLLEGSRFAVHHEEEVKVKDDEGILRQDRYPLRTSPQWLGPLVSDLIHAHAVLTIEAGQSTTDNPLIDVENKTSHHGGNFQAAAVANTMEKTRLGLAQIGKLNFTQLTEMLNAGMNRGLPSCLAAEDPSLSYHCKGLDIAAAAYTSELGHLANPVTTHVQPAEMANQAVNSLALISARRTTESNDVLSLLLATHLYCVLQAIDLRAIEFEFKKQFGPAIVSLIDQHFGSAMTGSNLRDELVEKVNKTLAKRLEQTNSYDLVPRWHDAFSFAAGTVVEVLSSTSLSLAAVNAWKVAAAESAISLTRQVRETFWSAASTSSPALSYLSPRTQILYAFVREELGVKARRGDVFLGKQEVTIGSNVSKIYEAIKSGRINNVLLKMLA
- TAL(kcat/KM), catalytic efficiency [1]: 4140 M⁻¹ s⁻¹
- PAL(kcat/KM), catalytic efficiency [2]: 8360 M⁻¹ s⁻¹

Source: patent US6521748B2, “Polynucleotide encoding a mutant Rhodotorula glutinis tyrosine ammonia lyase polypeptide” (E. I. du Pont de Nemours and Company, priority 1999, dated 2003)
